PubChem BioAssay AID743448 – Peter MacCallum Cancer Centre – 2014
Test: 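Find knock-downs giving vorinostat-specific cell death in several colon cancer lines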 (follow-up of hits). Cell system: four human colon cancer cell lines: HCT116-VR (vorinostat-resistant HCT116 derivative), SW480, SW620 and LIM1215. Knock-down reagent: siRNA pool against human genes, 40 nM siRNA pool. Timing: drug added two days after transfection, read one day later. Challenge: vorinostat 2.5 µM on one half of each plate, etoposide 5 µM on the other half. Cell line and drug panel: LIM1215 cells with vorinostat. Read-out: 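Caspase 3/7 activity by luminescence and live-cell viability by fluorescence, each given as a ratio to mock-transfected wells and as a robust z-score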. Reading the numbers: caspase ratio to mock: higher = more caspase activity than mock; viability ratio to mock: higher = more live cells than mock; caspase robust z-score: higher = more caspase activity, more apoptosis; viability robust z-score: higher = more live cells. Hit rule: 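Hit means caspase ratio to mock at least 1.6, or viability ratio to mock at most 0.75; wells with strong death in the absence of drug get no call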. Calls: active = caspase or viability hit in this panel; inactive = no change, or unhealthy well.
This is a random part of the 106 reagents, under one of the conditions tested. 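Calls are per line and drug panel including etoposide, not vorinostat-specific; gene picks needed hits in two or more extra lines with vorinostat versus etoposide.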 Unmarked entries are inactive. No sequences are given here.

gene	caspase ratio to mock	viability ratio to mock	caspase robust z-score	viability robust z-score
DDX18 (DEAD-box helicase 18)	3.19 (active)	0.98	1.34	0.45
GLI1 (GLI family zinc finger 1)	1.7 (active)	1.07	-0.48	1.17
MED26 (mediator complex subunit 26)	3.17 (active)	1.05	1.42	1
HSPA6 (heat shock protein family A (Hsp70) member 6)	3.23 (active)	0.8	1.41	-0.83
CSE1L (chromosome segregation 1 like)	3.15 (active)	0.88	1.32	-0.22
EIF1AX (eukaryotic translation initiation factor 1A X-linked)	1.81 (active)	0.77	-0.34	-1.1
CAPN12 (calpain 12)	1.92	0.86	-0.26	-0.4
MAGOH (mago homolog, exon junction complex subunit)	2.37 (active)	0.84	0.36	-0.55
RGS18 (regulator of G protein signaling 18)	2.93 (active)	1.02	1.06	0.76
H1-5 (H1.5 linker histone, cluster member)	2.5 (active)	0.92	0.44	0.05
PSMD13 (proteasome 26S subunit, non-ATPase 13)	2.7 (active)	0.82	0.82	-0.68
CDK10 (cyclin dependent kinase 10)	2.21 (active)	1.04	0.18	0.87
IRX2-DT (IRX2 divergent transcript)	3.86 (active)	1.37	2.15	3.37
C1orf52 (chromosome 1 open reading frame 52)	1.57	1.09	-0.68	1.3
UTP3 (UTP3 small subunit processome component)	1.11	0.8	-1.25	-0.84
RWDD2A (RWD domain containing 2A)	1.65 (active)	0.94	-0.57	0.2
ZNF441 (zinc finger protein 441)	1.72 (active)	0.78	-0.52	-0.98
POLR2J (RNA polymerase II subunit J)	1.98 (active)	0.8	-0.16	-0.8
AKAP8 (A-kinase anchoring protein 8)	2.19 (active)	1.2	0.08	2.13
BEGAIN (brain enriched guanylate kinase associated)	2.06 (active)	0.88	-0.06	-0.21
THAP1 (THAP domain containing 1)	1.54	1.09	-0.72	1.31
GATA1 (GATA binding protein 1)	2.19 (active)	1.08	0.07	1.23
GNG8 (G protein subunit gamma 8)	3.06	0.82	1.24	-0.74

8 entries from above, reformatted.
{"gene":"MED26 (mediator complex subunit 26)","caspase ratio to mock":"3.17 (active)","viability ratio to mock":1.05,"caspase robust z-score":1.42,"viability robust z-score":1}
{"gene":"HSPA6 (heat shock protein family A (Hsp70) member 6)","caspase ratio to mock":"3.23 (active)","viability ratio to mock":0.8,"caspase robust z-score":1.41,"viability robust z-score":-0.83}
{"gene":"CSE1L (chromosome segregation 1 like)","caspase ratio to mock":"3.15 (active)","viability ratio to mock":0.88,"caspase robust z-score":1.32,"viability robust z-score":-0.22}
{"gene":"EIF1AX (eukaryotic translation initiation factor 1A X-linked)","caspase ratio to mock":"1.81 (active)","viability ratio to mock":0.77,"caspase robust z-score":-0.34,"viability robust z-score":-1.1}
{"gene":"CAPN12 (calpain 12)","caspase ratio to mock":1.92,"viability ratio to mock":0.86,"caspase robust z-score":-0.26,"viability robust z-score":-0.4}
{"gene":"MAGOH (mago homolog, exon junction complex subunit)","caspase ratio to mock":"2.37 (active)","viability ratio to mock":0.84,"caspase robust z-score":0.36,"viability robust z-score":-0.55}
{"gene":"RGS18 (regulator of G protein signaling 18)","caspase ratio to mock":"2.93 (active)","viability ratio to mock":1.02,"caspase robust z-score":1.06,"viability robust z-score":0.76}
{"gene":"H1-5 (H1.5 linker histone, cluster member)","caspase ratio to mock":"2.5 (active)","viability ratio to mock":0.92,"caspase robust z-score":0.44,"viability robust z-score":0.05}

The list goes on:
gene	caspase ratio to mock	viability ratio to mock	caspase robust z-score	viability robust z-score
TDP2 (tyrosyl-DNA phosphodiesterase 2)	3.33 (active)	0.8	1.53	-0.84
MICALL2 (MICAL like 2)	3.52 (active)	1.12	1.79	1.58
SAP130 (Sin3A associated protein 130)	2.32 (active)	0.81	0.26	-0.78
TGM5 (transglutaminase 5)	1.35	0.9	-0.96	-0.11
EIF3L (eukaryotic translation initiation factor 3 subunit L)	1.7 (active)	1.02	-0.48	0.84
NUP58 (nucleoporin 58)	3.67 (active)	0.94	2.04	0.15
OSBPL6 (oxysterol binding protein like 6)	2 (active)	1.1	-0.14	1.39
BDP1 (BDP1 general transcription factor IIIB subunit)	1.5	1.04	-0.77	0.92
NUP62 (nucleoporin 62)	3.23 (active)	0.99	1.48	0.58
OR6T1 (olfactory receptor family 6 subfamily T member 1)	2.04 (active)	0.91	-0.08	-0.02
ANKRD13C-DT (ANKRD13C divergent transcript)	2.13 (active)	0.92	0.04	0.06
POLR2L (RNA polymerase II, I and III subunit L)	1.74 (active)	0.81	-0.45	-0.76
SLU7 (spliceosome associated SLU7)	3.33 (active)	0.66	1.54	-1.88
C22orf15 (chromosome 22 open reading frame 15)	2.93 (active)	0.88	1.1	-0.23
POLR2D (RNA polymerase II subunit D)	2.17 (active)	0.86	0.05	-0.44
LAD1 (ladinin 1)	2.34 (active)	0.96	0.27	0.34
THAP3 (THAP domain containing 3)	1.31	0.88	-1	-0.25
RNF186 (ring finger protein 186)	0.99	1	-1.38	0.66
VPS4A (vacuolar protein sorting 4 homolog A)	2.1 (active)	0.73	-0.01	-1.39
PSMA7 (proteasome 20S subunit alpha 7)	4.88 (active)	0.8	3.43	-0.85
KIR2DL1	1.52	1.02	-0.72	0.78
PNN (pinin, desmosome associated protein)	2.62 (active)	0.86	0.7	-0.41
MED28 (mediator complex subunit 28)	2.56 (active)	0.84	0.64	-0.56
PCP4 (Purkinje cell protein 4)	3.68 (active)	0.98	2.03	0.48
CNOT1 (CCR4-NOT transcription complex subunit 1)	4.01 (active)	1.2	2.46	2.08
PLAG1 (PLAG1 zinc finger)	1.15	0.97	-1.19	0.38
RBBP8 (RB binding protein 8, endonuclease)	2.77 (active)	0.96	0.85	0.31
EIF3I (eukaryotic translation initiation factor 3 subunit I)	1.9 (active)	0.69	-0.27	-1.7
GPER1 (G protein-coupled estrogen receptor 1)	2.44 (active)	1.08	0.4	1.23
OR2W5	2 (active)	1	-0.12	0.58
DDX19B (DEAD-box helicase 19B)	5.29	1	4.14	0.58
AP5S1 (adaptor related protein complex 5 subunit sigma 1)	2.31	0.9	0.22	-0.14
CCNK (cyclin K)	2.09 (active)	1.07	-0.04	1.18
SEMA4F (ssemaphorin 4F)	2.76 (active)	0.87	0.82	-0.32
LRP3 (LDL receptor related protein 3)	1.17	0.91	-1.15	-0.05
HPCAL1 (hippocalcin like 1)	3.2 (active)	1.04	1.38	0.88
EIF4A1 (eukaryotic translation initiation factor 4A1)	1.14	0.9	-1.21	-0.12
TBC1D20 (TBC1 domain family member 20)	2.69 (active)	0.84	0.73	-0.51
FANCA (FA complementation group A)	4.53 (active)	0.93	3.06	0.1
SCRT2 (scratch family transcriptional repressor 2)	3.36	0.93	1.52	0.13
